Literature values, collected in patent publication US20190144909A1, “METHODS OF MODULATING BCKDH” (NESTEC S.A., priority 2016, published 2019).

Test system: branched-chain alpha-keto acid dehydrogenase E1 A subunit (BCKDHA)
Settings: Table 1b, from Comparative Toxicogenomics Database

In the case of `CCCCc1oc2ccccc2c1C(=O)c1cc(I)c(OCCN(CC)CC)c(I)c1` [Amiodarone, reference compound], the “Interaction Actions” value is listed as “increases expression”.
